At least one compound was matched to its structure with a doubt left.
Tested on: PDE2A, PDE4A, PDE4B, Cgs2
Test: High throughput 5FOA growth screens of bioactive libraries
Format: cell-based, murine; Schizosaccharomyces pombe
Settings: average 20 μM; composite Z score cut-off ≧8.53
Description: High throughput drug screens were carried out at the Broad Institute's Chemical Biology Program screening facility (Broad Institute, Cambridge, Mass.). Depending upon the strain, cultures were pregrown to exponential phase in EMM complete medium containing from 0.5 to 2.5 mM cAMP to repress fbp1-ura4 transcription. […] Starting cell concentrations ranged from 0.5×10^5 to 4×10^5 cells/ml depending on the screening strain. […] Other positive control dishes contained 5 mM cAMP in the 5FOA medium. Cultures were grown for 48 hours at 30° C., sealed in an airtight container with moist paper towels to prevent evaporation. Optical densities (OD600) of cultures were measured using a microplate reader. Bioinformatic analysis of the results to determine composite Z scores was performed as previously described^30, 31.

## COc1cc(-c2ccc(=O)[nH]n2)ccc1OC(F)F [zardaverine]
  Result in high throughput screens for 5FOA-resistant growth: only affected the PDE4A- and PDE4B-expressing strains
